Measurements as given in paper PMC4745783, “The HGF inhibitory peptide HGP-1 displays promising in vitro and in vivo efficacy for targeted cancer therapy” (Oncotarget, 2015).

Tested on: recombinant human full length HGF
Experiment: Sequencing of clones after MACS/FACS sorting of bacterial display X15 library
Settings: after 1 MACS and 13 FACS cycles; for Frequency: number of sequenced bacteria clones carrying the sequence; for Percentage: share of sequenced clones

Sequence | Frequency | Percentage [%]
ALQQAWGWWDCYGWR [Clone 15] | 1 | 2.0
AYMMRDLWEYNWTSG [Clone 7] | 2 | 4.1
GTARLLWRPVVTYDC [Clone 12] | 1 | 2.0
KGYGRYWWDCGDNFW [Clone 8] | 1 | 2.0
MEVERRWPWWHANYW [Clone 6] | 3 | 6.1
MGGGSWLYVGDPDCW [Clone 13] | 1 | 2.0
MYNVRLNDWYWCGWD [Clone 16] | 1 | 2.0
QRCGMVRFNDWQHPM [Clone 11] | 1 | 2.0
RANWFCIEDSVYCGK [Clone 4] | 3 | 6.1
RSSMWDCYYFDCCNW [Clone 14] | 1 | 2.0
SARKLGWCPYWSSDC [Clone 5] | 3 | 6.1
SPWWSVYETQSCAVR [Clone 17] | 1 | 2.0
TLYEVDLREWCAGIVG [HGP-2] | 7 | 14.3
TYFTWWELSPGCEEH [HGP-3] | 6 | 12.2
YRWGMGGYEYWCNRG [Clone 10] | 1 | 2.0
YWPGCQEWGNKWWGG [Clone 9] | 1 | 2.0
YWYGWGSGWSGCDHA [Clone 18] | 1 | 2.0
